Measured values as given in patent US8299267B2, “(3-hydroxy-4-amino-butan-2-yl) -3- (2-thiazol-2-yl-pyrrolidine-1-carbonyl) benzamide derivatives and related compounds as beta-secretase inhibitors for treating” (CoMentis, Inc., priority 2007, dated 2012).

Amino acid sequences for entries named in this document (tags omitted). Residues count along the entry.
UniProt P56817, 46-501 limits assumed: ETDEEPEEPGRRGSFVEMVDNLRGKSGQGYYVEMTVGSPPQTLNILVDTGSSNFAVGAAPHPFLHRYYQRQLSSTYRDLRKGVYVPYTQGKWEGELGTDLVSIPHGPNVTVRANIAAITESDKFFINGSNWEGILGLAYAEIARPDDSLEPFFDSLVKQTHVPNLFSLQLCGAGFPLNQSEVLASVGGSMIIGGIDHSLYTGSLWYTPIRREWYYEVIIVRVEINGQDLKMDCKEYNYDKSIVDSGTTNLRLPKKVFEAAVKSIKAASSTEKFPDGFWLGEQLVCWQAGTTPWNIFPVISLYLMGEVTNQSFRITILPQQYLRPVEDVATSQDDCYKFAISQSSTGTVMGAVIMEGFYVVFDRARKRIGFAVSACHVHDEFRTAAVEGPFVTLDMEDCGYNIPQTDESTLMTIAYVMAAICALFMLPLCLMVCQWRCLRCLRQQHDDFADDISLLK
UniProt P07339, 65-412 limits assumed: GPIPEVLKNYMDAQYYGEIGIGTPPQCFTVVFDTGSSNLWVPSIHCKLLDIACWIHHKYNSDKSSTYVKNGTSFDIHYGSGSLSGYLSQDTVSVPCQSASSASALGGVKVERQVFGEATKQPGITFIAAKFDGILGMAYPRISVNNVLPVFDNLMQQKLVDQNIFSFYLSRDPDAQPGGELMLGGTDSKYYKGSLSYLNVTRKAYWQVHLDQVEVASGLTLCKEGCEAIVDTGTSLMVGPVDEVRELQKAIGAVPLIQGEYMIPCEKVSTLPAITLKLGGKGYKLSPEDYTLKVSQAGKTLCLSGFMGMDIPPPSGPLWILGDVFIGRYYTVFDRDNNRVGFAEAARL
UniProt Q9Y5Z0, 63-518 limits assumed: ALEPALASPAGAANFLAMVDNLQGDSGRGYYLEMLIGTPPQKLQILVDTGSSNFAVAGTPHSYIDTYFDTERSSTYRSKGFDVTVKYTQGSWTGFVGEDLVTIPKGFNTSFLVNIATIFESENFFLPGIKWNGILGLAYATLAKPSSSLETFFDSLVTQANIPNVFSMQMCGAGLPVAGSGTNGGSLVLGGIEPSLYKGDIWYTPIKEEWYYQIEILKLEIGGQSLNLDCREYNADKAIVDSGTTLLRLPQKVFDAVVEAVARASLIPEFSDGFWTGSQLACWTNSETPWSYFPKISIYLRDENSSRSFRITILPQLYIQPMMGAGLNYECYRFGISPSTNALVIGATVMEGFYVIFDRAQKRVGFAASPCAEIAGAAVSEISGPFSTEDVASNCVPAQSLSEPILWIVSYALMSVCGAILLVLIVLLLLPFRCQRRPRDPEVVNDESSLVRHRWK

Experiments:
memapsin 2 = memapsin 2 (Homo sapiens, UniProt P56817); assay: Inhibition of memapsin 2 beta-secretase activity toward fluorogenic substrate FS-2; details: read-out: M2Ki, memapsin 2, pH 4, 37° C., 20 minutes pre-incubation
Description: Potency of compounds were determined by measurement of their inhibition of memapsin 2 activity toward a fluorescent substrate. Kinetic inhibition experiments were performed using the procedure as described in Ermolieff, et al. (Biochemistry 39:12450-12456 (2000), the teachings of which are incorporated hereby in their entirety). Briefly, assays were performed at pH 4, 37° C., by pre-incubation of memapsin 2 enzyme with compound for 20 minutes. Activity measurements were initiated by addition of a fluorogenic substrate FS-2 (Bachem Americas, Torrance, Calif.) MCA-SEVNLDAEFK-DNP (SEQ ID NO.: 2). The substrate was derived from 10 amino acids of the human amyloid precursor protein (APP), with the Swedish variant amino acids at the beta-secretase cleavage site. The terminal amino acid was modified from arginine to lysine to facilitate derivatization with a functional group for detection by autofluorescence. The amino acid sequence of the “core” peptide of the substrate is SEVNLDAEFK (SEQ ID NO.: 3). The amino terminus was derivatized with (7-methoxycoumarin-4-yl)acetyl (MCA), and the epsilon amine of the lysine side chain of the terminal residue (K in sequence SEVNLDAEFK (SEQ ID NO.: 4)) was derivatized with 2,4-dinitrophenyl (DNP).

[1] = system: Aβ production in Chinese hamster ovary cells that over-express human APP695 with the London and Swedish mutations; assay: Cellular Aβ IC50 determination (Aβ40 sandwich ELISA); details: Aβ40 in CHO cells over-expressing human APP695, 24 h incubation
cathepsin D = cathepsin D (Homo sapiens, UniProt P07339); assay: Inhibition of cathepsin D activity (substrate peptide ELDLAVEFWHDR, MALDI-TOF); details: read-out: CDKi, pH 4.1, 37 degrees C.
Description: [The procedure below names another target; the source lists this target under the same test.] (§1) A substrate peptide NH3-ELDLAVEFWHDR-CO2 (SEQ ID NO.: 1) was dissolved at 2 mg/mL in 10% glacial acetic acid and diluted into 0.009M NaOH to obtain μM concentration at pH 4.1. After equilibration at 37 degrees C., the reactions were initiated by the addition of an aliquot of memapsin 2. Aliquots were removed at time intervals, and combined with an equal volume of MALDI-TOF matrix (α-hydroxycinnamic acid in acetone, 20 mg/mL) and immediately spotted in duplicate onto a stainless-steel MALDI sample plate. MALDI-TOF mass spectrometry was performed on a PE Biosystems Voyager DE. The instrument was operated at 25,000 accelerating volts in positive mode with a 150 ns delay. Ions with a mass-to-charge ratio (m/z) were detected in the range of 650-2000 atomic mass units. Data were analyzed by the Voyager Data Explorer module to obtain ion intensity data for mass species of substrates and corresponding products in a given mixture. Relative product formation was calculated as the ratio of signal intensity of the product to the sum of signal intensities of both product and the corresponding substrate. Relative product formed per unit time was obtained from non-linear regression analysis of the data representing the initial 15% formation of product using the model: 1−e^−kT, where k was the relative hydrolytic rate constant and T was time in seconds. […]

memapsin 1 = memapsin 1 (Homo sapiens, UniProt Q9Y5Z0); assay: Inhibition of memapsin 1 beta-secretase activity (substrate peptide ELDLAVEFWHDR, MALDI-TOF); details: read-out: M1Ki; memapsin 1, pH 4.1, 37 degrees C.
Description: [The procedure below names another target; the source lists this target under the same test.] as §1

Row | Ki (cathepsin D) [nM] | Ki (memapsin 1) [nM] | SMILES | Ki (memapsin 2) [nM] | IC50 [1] [nM]
1 | – | – | Cc1coc([C@H]2CCCN2C(=O)c2cccc(C(=O)N[C@@H](Cc3ccccc3)[C@H](O)CNCc3cccc(C(C)(F)F)c3)c2)n1 | < 100 | < 300
2 | 301 to 500 | < 300 | COc1cccc(CNC[C@@H](O)[C@H](Cc2ccccc2)NC(=O)c2cccc(C(=O)N3CCC[C@@H]3c3nc(C)cs3)c2)c1 | < 100 | < 300

The match of structure and compound is tentative.
